This note sets out measurements from patent publication EP2918680A1.

Protein sequences, listed by entry. Tags and fused reporters are not part of them. Residues count along the entry.
UniProt P00772, residues 27-266: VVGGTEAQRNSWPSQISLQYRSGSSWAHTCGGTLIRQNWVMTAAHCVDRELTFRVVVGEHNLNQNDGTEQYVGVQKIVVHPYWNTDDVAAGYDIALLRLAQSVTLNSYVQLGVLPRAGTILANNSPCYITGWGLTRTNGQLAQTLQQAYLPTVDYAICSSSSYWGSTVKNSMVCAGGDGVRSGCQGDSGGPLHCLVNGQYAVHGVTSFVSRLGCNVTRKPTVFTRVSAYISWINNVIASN
UniProt P01009, residues 25-418: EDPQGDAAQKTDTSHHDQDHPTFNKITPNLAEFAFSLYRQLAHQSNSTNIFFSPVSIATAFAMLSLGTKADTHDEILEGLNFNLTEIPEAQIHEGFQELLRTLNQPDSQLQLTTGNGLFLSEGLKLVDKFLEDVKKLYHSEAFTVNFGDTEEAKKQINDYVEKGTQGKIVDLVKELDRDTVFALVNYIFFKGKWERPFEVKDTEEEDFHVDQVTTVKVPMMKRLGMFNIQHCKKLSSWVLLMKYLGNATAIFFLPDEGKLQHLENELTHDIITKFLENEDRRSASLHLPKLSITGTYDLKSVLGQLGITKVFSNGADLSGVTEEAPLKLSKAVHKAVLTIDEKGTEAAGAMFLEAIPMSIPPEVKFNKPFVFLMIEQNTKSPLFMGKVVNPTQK

No constants are given. Whether binding was seen depends on the method and setting. Some entries that bind do so weakly or less than the wild type.

The target of the assay is porcine elastase (porcine) (UniProt P00772). Briefly: band shift assay (SDS-PAGE and Western blot) after adding porcine elastase. (In general: Immunoblotting shows a protein as a band on a membrane.)

For “human plasma-derived α1-antitrypsin (pAAT) (from UniProt P01009 25-418)”, the binding entry is “binds”.
Under “OsrAAT (recombinant human α1-antitrypsin expressed in rice endosperm, Oryza sativa recombinant AAT) (from UniProt P01009 25-418)” stands “binds”.
